Three molecules from publication PMC5089723, “Structural Insights into the Nucleotide-Binding Domains of the P1B-type ATPases HMA6 and HMA8 from Arabidopsis thaliana” (PLoS ONE, 2016) can be followed below.

Substitutions are numbered along the chain they refer to. Results are given in words; binding and its absence hold for the method and conditions named.

What all share (assay): SEC; HiLoad 26/60 Superdex 75; 20 mM Mops pH 7.0, 150 mM NaCl (HMA8^N) or 20 mM potassium phosphate pH 7.0, 150 mM KCl (HMA6^N-AA); tags cleaved; both purified
In general terms: In gel filtration, larger molecules generally elute earlier.

In test [1] the target is nucleotide-binding domain of HMA8 (HMA8^N, residues 557-689) (Arabidopsis thaliana) (UniProt B9DFX7).
Test [2] deals with nucleotide-binding domain of HMA6 (HMA6^N, residues 607-734) (Arabidopsis thaliana) (UniProt Q9SZC9).
In test [3] the target is HMA6^N-AA (nucleotide-binding domain of HMA6, residues 607-734, double mutant EE709AA) (Arabidopsis thaliana) (UniProt Q9SZC9).

B1: nucleotide-binding domain of HMA8 (HMA8^N, residues 557-689) (domain or fragment, UniProt B9DFX7 557-689)
chain: GASRPVVSGVASLGYEEQEVLKMAAAVEKTATHPIAKAIVNEAESLNLKTPETRGQLTEPGFGTLAEIDGRFVAVGSLEWVSDRFLKKNDSSDMVKLESLLDHKLSNTSSTSRYSKTVVYVGREGEGIIGAIAISD
As for B1, the binding result in test [1] is given as “no binding”.

B2: nucleotide-binding domain of HMA6 (HMA6^N, residues 607-734) (domain or fragment, UniProt Q9SZC9 607-734)
chain: GASHPVVTEVIIPENPRHNLNDTWSEVEVLMLAAAVESNTTHPVGKAIVKAARARNCQTMKAEDGTFTEEPGSGAVAIVNNKRVTVGTLEWVKRHGATGNSLLALEEHEINNQSVVYIGVDNTLAAVIRFE
B2: the binding result in test [2] is listed as “no binding”.

B3: HMA6^N-AA (nucleotide-binding domain of HMA6, residues 607-734, double mutant EE709AA) (domain or fragment, UniProt Q9SZC9 607-734)
chain: B2 chain with E106A, E107A
modifications: SeMet-substituted
For B3, in test [3], the binding result is given as “no binding”.
